PubChem BioAssay AID2685 (National Center for Advancing Translational Sciences (NCATS), 2010)
Some of the results follow. Further columns of the screen follow, without active or inactive calls. Most of these compounds were active or inconclusive in the main read-out, so they are no random draw. Words in brackets tell the shape of the fitted curve; partial curves, single points and poor fits give uncertain potencies.

Test: qHTS Assay for Lipid Storage Modulators in Drosophila S3 Cells;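 as to cell number change: cells counted by Cell Tracker Red CMTPX staining in the red channel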
Details: BODIPY lipid droplet fluorescence, 18-24 h; for cell number change: measured here: cell count max response, cells fed with added oleic acid
Summary of the method: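 Laser-scanning cytometry quantifies lipid droplet accumulation (500–530 nm total intensity; droplet/cell object ratio) in oleic acid-fed (400 uM added) Drosophila S3 cells treated with a concentration series. 20 uM Triacsin C defined 100% inhibition.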

[1] = measured here: cell number channel AC50, cells fed with added oleic acid
[2] = measured here: lipid fluorescence (Fed channel) AC50, cells fed with added oleic acid

Structure (SMILES) | cell number change [%] | AC50 [1] | AC50 [2]
COCC(=O)N(Cc1cc2ccc(C)cc2[nH]c1=O)c1ccc(C)cc1C | 12.8 |  | 
CC(C)CN(C(=O)c1ccc(-n2cncn2)c([N+](=O)[O-])c1)C1CCS(=O)(=O)C1 (centres undefined) | -25 | 2.31 µM [falling, full curve, poor fit] | 29.1 µM [rising, single point]
O=c1[nH]c2ccccc2c2ccccc12 | 83.3 | 18.4 µM [rising, single point] | 
CCNC(=O)/C(C#N)=C/c1c(N2CCN(C)CC2)nc2c(C)cccn2c1=O | -9.68 |  | 1.84 µM [rising, partial curve]
COc1ccc(C)cc1NC(=O)Nc1ccncc1 | -8.38 |  | 6.51 µM [falling, single point]
Cc1ccc2[nH]c(=O)c(CN(CC3CCCO3)S(=O)(=O)c3cccc4nsnc34)cc2c1 (centres undefined) | -8.55 |  | 8.2 µM [rising, partial curve]
CCS(=O)(=O)c1ccc(C(=O)Nc2ccccc2)c(Cl)c1Cl | 0.377 |  | 29.1 µM [rising, single point]
O=C1CN(C(=O)c2cc(Br)c(Br)s2)c2ccccc2N1 | 41.4 | 11.6 µM [rising, partial curve] | 
O=C(O)CCn1c(Cc2ccccc2)nc2ccccc21 | -13.8 |  | 
O=C(Cn1cnc2c(oc3ccccc32)c1=O)NCc1ccco1 | 23 |  | 23.1 µM [falling, partial curve]
O=C(NNC(=O)c1ccccc1O)c1ccc(S(=O)(=O)Nc2ccccc2)cc1 | -4.49 |  | 
CCOc1ccc(S(=O)(=O)N2CCCC(C(=O)N3CCCC3)C2)cc1 (centres undefined) | 10.5 |  | 6.51 µM [falling, single point]
Cc1ccc(CNC(=O)C2CCCN2C(=O)Nc2cccc(Cl)c2)cc1 (centres undefined) | -8.14 |  | 
CSc1ccc(CN(C)C(=O)c2ccc(S(=O)(=O)Nc3ccccc3)cc2)cc1 | -2.51 |  | 23.1 µM [falling, single point]
O=C(NC1CCCc2ccccc21)C1CCN(S(=O)(=O)c2cccc3nonc23)CC1 (centres undefined) | -0.116 |  | 29.1 µM [rising, single point]
O=[N+]([O-])c1ccccc1S(=O)(=O)N1CCN(Cc2ccc3c(c2)OCO3)CC1 | -6.1 |  | 0.092 µM [rising, full curve, poor fit]
COc1ccc(NC(=O)COC(=O)c2ccc(S(=O)(=O)N3CCCC3)cc2)cc1OC | -37.1 | 1.64 µM [falling, full curve, poor fit] | 9.2 µM [falling, partial curve]
COc1cc([C@H](Cc2ccccc2)NC(C)=O)oc(=O)c1 | -34.5 | 14.6 µM [falling, partial curve, poor fit] | 29.1 µM [falling, single point]
COc1ccc(NC(=O)C2CCN(c3ncnc4c3nc3n4CCCCC3)CC2)c(OC)c1 | 31.3 |  | 
Cc1ccc(CNC(=O)C2(S(=O)(=O)c3ccc(C)cc3)CC2)cc1 | 4.76 |  | 6.51 µM [falling, single point]
CCSc1nnc(NC(=O)C2CC=CCC2C(=O)O)s1 (centres undefined) | 1.55 |  | 16.4 µM [falling, single point]

Structure (SMILES) | cell number change [%] | AC50 [1] | AC50 [2]
CCn1c(SCc2nc3ccccc3s2)nnc1-c1ccccc1 | 82 | 11.6 µM [rising, partial curve] | 6.51 µM [rising, partial curve]
Cc1ccc(NC(=O)C2CCCN(C(=O)c3ccc(Cl)cc3)C2)cc1 (centres undefined) | 4.69 |  | 
O=C(Nc1cc(Cl)cc(Cl)c1)Nc1cnccn1 | -2.64 | 0.206 µM [rising, full curve, poor fit] | 6.51 µM [falling, single point]
CC(=O)N1N=C(c2ccc3ccccc3c2)OC12CCCC2 | -1.32 | 6.51 µM [falling, single point] | 6.51 µM [falling, single point]
COc1ccc(Cn2c(C3CC3)nc3ccc(NC(C)=O)cc3c2=O)cc1 | -24.5 |  | 0.461 µM [rising, partial curve, poor fit]
CCOC(=O)C1CCN(S(=O)(=O)c2ccc(OC)c(C(=O)N3CCCCC3)c2)CC1 | 12.5 |  | 
N#Cc1c(NC(=S)NC(=O)c2ccccc2)sc2c1CCCC2 | 11.9 |  | 0.116 µM [rising, full curve, poor fit]
COc1cc(C2SCC(=O)N2c2c(C)n(C)n(-c3ccccc3)c2=O)ccc1O (centres undefined) | 5.96 |  | 
COc1ccc(-n2nc3c(c2NC(=O)C(C)Cl)CSC3)cc1 (centres undefined) | 7.95 |  | 16.4 µM [rising, single point]
CCCCN(C(=O)CSc1nncn1-c1ccccc1OC)c1c(N)n(Cc2ccccc2)c(=O)[nH]c1=O | 2.87 |  | 
COC(=O)c1sc(NC(=S)NNC(=O)c2c(Br)c(C)nn2C)c(C(=O)OC)c1C | -45.5 | 20.6 µM [falling, single point] | 
CS(=O)(=O)NCCSCc1ccccc1 | -14.9 |  | 0.0164 µM [falling, full curve, poor fit]
O=C(Cn1c(-c2cscn2)nc2ccccc21)Nc1ccc2ccccc2c1 | -23.8 |  | 
CN(CC(=O)Nc1ccccc1Br)C(=O)c1ccc(-c2ccc(Cl)cc2)o1 | -13.5 |  | 
CCOC(=O)C1CCN(C(=O)COC(=O)c2oc3ccc(OC)cc3c2C)CC1 | -1.91 |  | 3.66 µM [falling, full curve]
COc1ccc(Cl)cc1NC(=O)NCC1CCN(C(=O)OC(C)(C)C)CC1 | -52.6 | 5.17 µM [falling, full curve] | 3.26 µM [falling, full curve]
COc1ccc(S(=O)(=O)n2oc(=O)cc2-c2ccccc2)cc1OC | 15.1 |  | 20.6 µM [rising, single point]
NC(=O)C1CCN(C(=O)COc2ccc3c(c2)oc(=O)c2ccccc23)CC1 | -3.88 |  | 
CCn1c(SC(C)C(=O)Nc2ccc(N3CCOCC3)cc2)nnc1C1CC1 (centres undefined) | 2.2 |  | 0.291 µM [falling, full curve, poor fit]
COc1cc(C(=O)NCCC(=O)NCCCN2CCCCC2C)cc(OC)c1OC (centres undefined) | -2.44 |  | 0.58 µM [falling, single point]
COc1ccc(NC(=O)c2cc(S(=O)(=O)N3CCCC3)ccc2C)cn1 | -9.86 |  | 0.0651 µM [falling, full curve, poor fit]

Sorted by count of non-hydrogen atoms (rising): eleven of the compounds above.
Structure (SMILES) | cell number change [%] | AC50 [1] | AC50 [2]
CS(=O)(=O)NCCSCc1ccccc1 | -14.9 |  | 0.0164 µM [falling, full curve, poor fit]
O=C(Nc1cc(Cl)cc(Cl)c1)Nc1cnccn1 | -2.64 | 0.206 µM [rising, full curve, poor fit] | 6.51 µM [falling, single point]
CC(=O)N1N=C(c2ccc3ccccc3c2)OC12CCCC2 | -1.32 | 6.51 µM [falling, single point] | 6.51 µM [falling, single point]
N#Cc1c(NC(=S)NC(=O)c2ccccc2)sc2c1CCCC2 | 11.9 |  | 0.116 µM [rising, full curve, poor fit]
CCn1c(SCc2nc3ccccc3s2)nnc1-c1ccccc1 | 82 | 11.6 µM [rising, partial curve] | 6.51 µM [rising, partial curve]
COc1ccc(S(=O)(=O)n2oc(=O)cc2-c2ccccc2)cc1OC | 15.1 |  | 20.6 µM [rising, single point]
COc1ccc(NC(=O)c2cc(S(=O)(=O)N3CCCC3)ccc2C)cn1 | -9.86 |  | 0.0651 µM [falling, full curve, poor fit]
CN(CC(=O)Nc1ccccc1Br)C(=O)c1ccc(-c2ccc(Cl)cc2)o1 | -13.5 |  | 
CCn1c(SC(C)C(=O)Nc2ccc(N3CCOCC3)cc2)nnc1C1CC1 (centres undefined) | 2.2 |  | 0.291 µM [falling, full curve, poor fit]
COc1cc(C2SCC(=O)N2c2c(C)n(C)n(-c3ccccc3)c2=O)ccc1O (centres undefined) | 5.96 |  | 
CCOC(=O)C1CCN(S(=O)(=O)c2ccc(OC)c(C(=O)N3CCCCC3)c2)CC1 | 12.5 |  | 

(next part)

Structure (SMILES) | cell number change [%] | AC50 [1] | AC50 [2]
COC(=O)c1c(NC(=O)CN2CCN(c3ccccc3OC)CC2)c2cc(C)ccc2n1C | 17 |  | 6.51 µM [rising, single point]
COc1ccc(NC(=O)CNC(=O)CC23CC4CC(CC(C4)C2)C3)c(OC)c1 | 23.3 |  | 
CC1(C)CC(=O)C(N=Nc2ccc(Br)cc2)=C(O)C1 | 7.02 | 0.00461 µM [rising, full curve, poor fit] | 
Cc1ccc(OC(C)c2nnc(N)s2)cc1Cl (centres undefined) | 161 | 20.6 µM [rising, partial curve] | 20.6 µM [rising, partial curve]
Cc1ccsc1C(=O)OCC(=O)NC1CCCCC1C (centres undefined) | -25.7 | 0.82 µM [falling, full curve, poor fit] | 29.1 µM [falling, single point]
O=C(COc1cc(=O)n2c(n1)SCCC2)c1ccccc1 | 23.1 |  | 10.3 µM [rising, partial curve]
CCOC(=O)c1c(C)[nH]c(C)c1C(=O)COC(=O)c1c(OC)cccc1OC | 2.01 |  | 
CCOc1cc(CNc2ccc(N(C)C)cc2)cc(Br)c1OCC(=O)NC(C)(C)C | -49.7 | 29.1 µM [falling, single point] | 20.6 µM [falling, single point]
CC(=O)N=c1cccc(NC(C)=O)n1O | -25.4 | 0.231 µM [falling, full curve, poor fit] | 1.03 µM [falling, full curve]
Cc1ccc(OCC(O)CNC2CCCC2)cc1C (centres undefined) | 32 | 32.6 µM [rising, single point] | 16.4 µM [rising, single point]
O=C1CC(C(=O)Nc2ccc(F)c(Cl)c2)N=C(N2CCCCC2)N1 (centres undefined) |  |  | 4.11 µM [falling, single point]
CC(=O)c1c(C)n(CCO)c2ccc(O)cc12 |  | 1.46 µM [rising, full curve, poor fit] | 
COc1cccc(C(=O)N(Cc2ccco2)c2c(N)n(Cc3ccccc3)c(=O)[nH]c2=O)c1 | 0.803 |  | 
CCOC(=O)C1=NN(C(C)=O)C2(CC(=O)N(c3cccc(C)c3)C2=O)C1 (centres undefined) | -12.7 |  | 4.11 µM [falling, full curve, poor fit]
C[C@@H](OC(=O)N1CCCCC1)[C@H]1O[C@]2(C)CCCC[C@H]1O2 | 11 |  | 1.16 µM [rising, full curve]
CCc1cccc(OCC(O)Cn2c(N3CCCCC3)nc3c2c(=O)[nH]c(=O)n3C)c1 (centres undefined) | -24.5 |  | 4.61 µM [falling, single point]
CCCCc1ccc(NC(=O)CC(C)C)cc1 | -2.17 |  | 0.184 µM [falling, full curve, poor fit]
O=C(Cn1ncc(Cl)c(Cl)c1=O)NC1CCCCC1 | -0.934 |  | 0.651 µM [falling, single point]
CCOC(=O)c1ccccc1NC(=O)COC(=O)CCC(=O)N1CCOCC1 | -2.97 | 0.82 µM [rising, full curve, poor fit] | 
CSc1nsc(/C=C/Nc2ccc(Cl)cc2)c1C#N | -0.648 |  | 18.4 µM [falling, single point]
